No constants are given. Whether binding was seen depends on the method and setting. In cells and extracts the contact can be indirect. Some binding calls cover weakened binding; strength is not graded here. Sequences can lack the tags named with a protein. One block for each binder: values may come before it.
Columns and labels:
[1] = target: T1, HD2B fused to nYFP (Arabidopsis thaliana) (UniProt Q56WH4); experiment: split reporter; BiFC with nYFP and cYFP fusions from pBiFCt-2in1-NN in Arabidopsis protoplasts; YFP signal by confocal microscopy after 16 h to 24 h in the dark
T1 sequence: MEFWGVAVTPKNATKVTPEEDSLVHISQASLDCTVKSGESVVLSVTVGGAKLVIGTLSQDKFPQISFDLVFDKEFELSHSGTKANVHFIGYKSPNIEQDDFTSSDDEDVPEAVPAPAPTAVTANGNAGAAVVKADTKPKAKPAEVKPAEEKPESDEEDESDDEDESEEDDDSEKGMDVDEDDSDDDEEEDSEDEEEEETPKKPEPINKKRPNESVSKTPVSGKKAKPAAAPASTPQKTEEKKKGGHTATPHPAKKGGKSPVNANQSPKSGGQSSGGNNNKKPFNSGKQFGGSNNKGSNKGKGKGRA

[2] = target: T2, HD2B-GFP (Arabidopsis thaliana) (UniProt Q56WH4); experiment: co-IP; HSI2-myc or HSL1-myc transiently expressed in protoplasts of HD2A-GFP or HD2B-GFP lines; total protein extract (50 mM Tris-HCl pH 8, 150 mM NaCl, 0.1% Nonidet P-40) on GFP-Trap agarose beads at 4°C overnight; immunoblot with anti-Myc antibody
T2 sequence: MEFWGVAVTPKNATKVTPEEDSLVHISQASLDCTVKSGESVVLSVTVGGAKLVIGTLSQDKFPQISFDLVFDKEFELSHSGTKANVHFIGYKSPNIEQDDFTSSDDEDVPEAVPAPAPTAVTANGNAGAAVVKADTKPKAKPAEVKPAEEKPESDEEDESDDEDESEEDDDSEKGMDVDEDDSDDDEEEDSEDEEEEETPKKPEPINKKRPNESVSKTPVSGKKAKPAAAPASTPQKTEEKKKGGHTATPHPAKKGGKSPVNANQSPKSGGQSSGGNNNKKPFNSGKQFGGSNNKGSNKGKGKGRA

B1: HSI2-LIKE1 (HSL1) fused to cYFP (protein, UniProt Q5CCK4 1-780)
chain: MESIKVCMNALCGAASTSGEWKKGWPMRSGDLASLCDKCGCAYEQSIFCEVFHAKESGWRECNSCDKRLHCGCIASRFMMELLENGGVTCISCAKKSGLISMNVSHESNGKDFPSFASAEHVGSVLERTNLKHLLHFQRIDPTHSSLQMKQEESLLPSSLDALRHKTERKELSAQPNLSISLGPTLMTSPFHDAAVDDRSKTNSIFQLAPRSRQLLPKPANSAPIAAGMEPSGSLVSQIHVARPPPEGRGKTQLLPRYWPRITDQELLQLSGQYPHLSNSKIIPLFEKVLSASDAGRIGRLVLPKACAEAYFPPISLPEGLPLKIQDIKGKEWVFQFRFWPNNNSRMYVLEGVTPCIQSMQLQAGDTVTFSRTEPEGKLVMGYRKATNSTATQMFKGSSEPNLNMFSNSLNPGCGDINWSKLEKSEDMAKDNLFLQSSLTSARKRVRNIGTKSKRLLIDSVDVLELKITWEEAQELLRPPQSTKPSIFTLENQDFEEYDEPPVFGKRTLFVSRQTGEQEQWVQCDACGKWRQLPVDILLPPKWSCSDNLLDPGRSSCSAPDELSPREQDTLVRQSKEFKRRRLASSNEKLNQSQDASALNSLGNAGITTTGEQGEITVAATTKHPRHRAGCSCIVCSQPPSGKGKHKPSCTCTVCEAVKRRFRTLMLRKRNKGEAGQASQQAQSQSECRDETEVESIPAVELAAGENIDLNSDPGASRVSMMRLLQAAAFPLEAYLKQKAISNTAGEQQSSDMVSTEHGSSSAAQETEKDTTNGAHDPVN
binding [1]: binds

B2: HIGH-LEVEL EXPRESSION OF SUGAR INDUCIBLE2 (HSI2) fused to cYFP (protein, UniProt Q8W4L5 1-790)
chain: MFEVKMGSKMCMNASCGTTSTVEWKKGWPLRSGLLADLCYRCGSAYESSLFCEQFHKDQSGWRECYLCSKRLHCGCIASKVTIELMDYGGVGCSTCACCHQLNLNTRGENPGVFSRLPMKTLADRQHVNGESGGRNEGDLFSQPLVMGGDKREEFMPHRGFGKLMSPESTTTGHRLDAAGEMHESSPLQPSLNMGLAVNPFSPSFATEAVEGMKHISPSQSNMVHCSASNILQKPSRPAISTPPVASKSAQARIGRPPVEGRGRGHLLPRYWPKYTDKEVQQISGNLNLNIVPLFEKTLSASDAGRIGRLVLPKACAEAYFPPISQSEGIPLKIQDVRGREWTFQFRYWPNNNSRMYVLEGVTPCIQSMMLQAGDTVTFSRVDPGGKLIMGSRKAANAGDMQGCGLTNGTSTEDTSSSGVTENPPSINGSSCISLIPKELNGMPENLNSETNGGRIGDDPTRVKEKKRTRTIGAKNKRLLLHSEESMELRLTWEEAQDLLRPSPSVKPTIVVIEEQEIEEYDEPPVFGKRTIVTTKPSGEQERWATCDDCSKWRRLPVDALLSFKWTCIDNVWDVSRCSCSAPEESLKELENVLKVGREHKKRRTGESQAAKSQQEPCGLDALASAAVLGDTIGEPEVATTTRHPRHRAGCSCIVCIQPPSGKGRHKPTCGCTVCSTVKRRFKTLMMRRKKKQLERDVTAAEDKKKKDMELAESDKSKEEKEVNTARIDLNSDPYNKEDVEAVAVEKEESRKRAIGQCSGVVAQDASDVLGVTELEGEGKNVREEPRVSS
binding [1]: binds

Next, values leading:

binding [2]: binds
B3: HSI2-myc (protein, UniProt Q8W4L5 1-790)
chain: MFEVKMGSKMCMNASCGTTSTVEWKKGWPLRSGLLADLCYRCGSAYESSLFCEQFHKDQSGWRECYLCSKRLHCGCIASKVTIELMDYGGVGCSTCACCHQLNLNTRGENPGVFSRLPMKTLADRQHVNGESGGRNEGDLFSQPLVMGGDKREEFMPHRGFGKLMSPESTTTGHRLDAAGEMHESSPLQPSLNMGLAVNPFSPSFATEAVEGMKHISPSQSNMVHCSASNILQKPSRPAISTPPVASKSAQARIGRPPVEGRGRGHLLPRYWPKYTDKEVQQISGNLNLNIVPLFEKTLSASDAGRIGRLVLPKACAEAYFPPISQSEGIPLKIQDVRGREWTFQFRYWPNNNSRMYVLEGVTPCIQSMMLQAGDTVTFSRVDPGGKLIMGSRKAANAGDMQGCGLTNGTSTEDTSSSGVTENPPSINGSSCISLIPKELNGMPENLNSETNGGRIGDDPTRVKEKKRTRTIGAKNKRLLLHSEESMELRLTWEEAQDLLRPSPSVKPTIVVIEEQEIEEYDEPPVFGKRTIVTTKPSGEQERWATCDDCSKWRRLPVDALLSFKWTCIDNVWDVSRCSCSAPEESLKELENVLKVGREHKKRRTGESQAAKSQQEPCGLDALASAAVLGDTIGEPEVATTTRHPRHRAGCSCIVCIQPPSGKGRHKPTCGCTVCSTVKRRFKTLMMRRKKKQLERDVTAAEDKKKKDMELAESDKSKEEKEVNTARIDLNSDPYNKEDVEAVAVEKEESRKRAIGQCSGVVAQDASDVLGVTELEGEGKNVREEPRVSS

binding [2]: binds
B4: HSL1-myc (protein, UniProt Q5CCK4 1-780)
chain: MESIKVCMNALCGAASTSGEWKKGWPMRSGDLASLCDKCGCAYEQSIFCEVFHAKESGWRECNSCDKRLHCGCIASRFMMELLENGGVTCISCAKKSGLISMNVSHESNGKDFPSFASAEHVGSVLERTNLKHLLHFQRIDPTHSSLQMKQEESLLPSSLDALRHKTERKELSAQPNLSISLGPTLMTSPFHDAAVDDRSKTNSIFQLAPRSRQLLPKPANSAPIAAGMEPSGSLVSQIHVARPPPEGRGKTQLLPRYWPRITDQELLQLSGQYPHLSNSKIIPLFEKVLSASDAGRIGRLVLPKACAEAYFPPISLPEGLPLKIQDIKGKEWVFQFRFWPNNNSRMYVLEGVTPCIQSMQLQAGDTVTFSRTEPEGKLVMGYRKATNSTATQMFKGSSEPNLNMFSNSLNPGCGDINWSKLEKSEDMAKDNLFLQSSLTSARKRVRNIGTKSKRLLIDSVDVLELKITWEEAQELLRPPQSTKPSIFTLENQDFEEYDEPPVFGKRTLFVSRQTGEQEQWVQCDACGKWRQLPVDILLPPKWSCSDNLLDPGRSSCSAPDELSPREQDTLVRQSKEFKRRRLASSNEKLNQSQDASALNSLGNAGITTTGEQGEITVAATTKHPRHRAGCSCIVCSQPPSGKGKHKPSCTCTVCEAVKRRFRTLMLRKRNKGEAGQASQQAQSQSECRDETEVESIPAVELAAGENIDLNSDPGASRVSMMRLLQAAAFPLEAYLKQKAISNTAGEQQSSDMVSTEHGSSSAAQETEKDTTNGAHDPVN

Reference: PMC10258333
